# Laboratory results reported in publication PMC10657444, “Design and evaluation of tadpole-like conformational antimicrobial peptides” (Communications Biology, 2023).
# “And” between values parts separate entries of the source, which are not always exact repeats. Equal entries are not always repeated. Further values from the same series stand in other lists. Non-standard residues stand in square brackets, D forms with d. Residues, ends and D or L forms follow the SMILES beside them.
# What was measured:
# [1] = system: K. pneumoniae ATCC 700603; assay: Membrane permeability, SYTOX Green; type: cell-based, Klebsiella pneumoniae
# Protocol: Fluorescent probe SYTOX^TM Green (Invitrogen/ Life Technologies, S7020) was used to analyze the effect of HT2 and RI-HT2 on membrane permeability of MRSA USA 300 and K. pneumoniae ATCC 700603 as described elsewhere. SYTOX^TM Green is a DNA binding dye that is fluorescent when bound to nucleic acids and only enters cells with compromised plasma membranes. MRSA USA 300 and K. pneumoniae ATCC 700603 were cultured in LB broth to mid log phase at 37 °C and washed with PBS and resuspended (OD595 ≈ 0.1) in the same buffer. SYTOX^TM Green was added into the cell suspension with a final concentration of 5 μM and being kept in dark for 20 min. 98 µL pre-treated cell suspension was transferred into wells of 96-well glass black plates. Then, 2 µL of compound or DMSO were added to initiate the reaction. The final concentrations of HT2 and RI-HT2 were 1 ×, 2 ×, 4 × and 8 × MIC. Fluorescence strength was measured with excitation/emission wavelength of 485/528 nm every 5 min for 60 min.
# MRSA USA 300 = assay: Membrane depolarization assay, DiSC3(5); type: cell-based, Staphylococcus aureus
# Protocol: MRSA USA 300 and K. pneumoniae ATCC 700603 were inoculated into 5 mL of LB and shaken at 37°C and 225 rpm to OD600 ≈ 0.5 (i.e., mid-logarithmic phase). Bacteria were collected by centrifugation at 8000 rpm for 5 min, and washed twice with assay buffer (5 mM HEPES, 20 mM glucose, 10 mM KCl, pH 7.2). Bacteria were resuspended in the assay buffer to OD595 ≈ 0.1. DiSC3(5) was added to the cells at final concentration of 0.3 µM, wrapped with aluminum foil, and incubated at 37°C, until a stable fluorescence was observed. Two microliter of compound or DMSO were transferred into 96-well black walled polystyrene plates, to which was added 98 µL per well of the dye-saturated bacterial cells to initiate the reaction. The final concentration of HT2 and RI-HT2 were 1 ×, 2 ×, 4 × and 8 × MIC. Plates were immediately read on an Envison at λex = 622 nm/ λem = 670 nm with a kinetic program (reading every 1 min for 10 min) until the maximal intensity achieved was observed.
smiles,measurement,setting,value
CC[C@@H](C)[C@@H](NC(=O)[C@@H](Cc1ccccc1)NC(=O)[C@@H](Cc1ccccc1)NC(=O)[C@@H](Cc1ccccc1)NC(=O)[C@H](N)Cc1ccccc1)C(=O)N[C@H](CCCNC(=N)N)C(=O)N[C@H](CCCNC(=N)N)C(=O)N[C@H](CC(C)C)C(=O)N[C@H](Cc1ccccc1)C(=O)N[C@H](CCCNC(=N)N)C(N)=O [RI-HT2] (H-[dF][dF][dF][dF][dI][dR][dR][dL][dF][dR]-NH2; N-terminus assumed),Fluorescence intensity,"[1]; 2 × MIC, time 40 min",34702 and 33547 and 34912
same,Fluorescence intensity,"[1]; 2 × MIC, time 45 min",37136 and 36211 and 37338
same,Fluorescence intensity,"[1]; 2 × MIC, time 50 min",39163 and 38232 and 39254
same,Fluorescence intensity,"[1]; 2 × MIC, time 55 min",40970 and 40291 and 41421
same,Fluorescence intensity,"[1]; 2 × MIC, time 60 min",42312 and 42003 and 42823
same,Fluorescence intensity,"[1]; 4 × MIC, time 40 min",62682 and 62893 and 61497
same,Fluorescence intensity,"[1]; 4 × MIC, time 45 min",63382 and 64110 and 63070
same,Fluorescence intensity,"[1]; 4 × MIC, time 50 min",63978 and 63270 and 64577
same,Fluorescence intensity,"[1]; 4 × MIC, time 55 min",64006 and 65215 and 63852
same,Fluorescence intensity,"[1]; 4 × MIC, time 60 min",64714 and 64385 and 66471
same,Fluorescence intensity,"[1]; 8 × MIC, time 40 min",66903 and 66727
same,Fluorescence intensity,"[1]; 8 × MIC, time 45 min",68176 and 67638 and 67671
same,Fluorescence intensity,"[1]; 8 × MIC, time 50 min",68008 and 67714 and 67439
same,Fluorescence intensity,"[1]; 8 × MIC, time 55 min",68663 and 68065 and 68105
same,Fluorescence intensity,"[1]; 8 × MIC, time 60 min",69269 and 68651 and 69113
same,Fluorescence intensity,"[1]; MIC, time 45 min",21004 and 21167 and 20800
same,Fluorescence intensity,"[1]; MIC, time 50 min",23259 and 23407 and 23194
same,Fluorescence intensity,"[1]; MIC, time 55 min",25402 and 25608 and 25260
same,Fluorescence intensity,"[1]; MIC, time 60 min",27605 and 27457 and 27329
same,Fluorescence intensity,"MRSA USA 300; 2 × MIC, time 0 min",504 and 513 and 519
same,Fluorescence intensity,"MRSA USA 300; 2 × MIC, time 2 min",504 and 511 and 498
same,Fluorescence intensity,"MRSA USA 300; 2 × MIC, time 3 min",472 and 496 and 479
same,Fluorescence intensity,"MRSA USA 300; 2 × MIC, time 4 min",488 and 491 and 486
same,Fluorescence intensity,"MRSA USA 300; 2 × MIC, time 5 min",497 and 499 and 489
same,Fluorescence intensity,"MRSA USA 300; 2 × MIC, time 6 min",508 and 499 and 482
same,Fluorescence intensity,"MRSA USA 300; 2 × MIC, time 7 min",484 and 493 and 479
same,Fluorescence intensity,"MRSA USA 300; 2 × MIC, time 8 min",487 and 501
same,Fluorescence intensity,"MRSA USA 300; 2 × MIC, time 9 min",480 and 490 and 474
same,Fluorescence intensity,"MRSA USA 300; 2 × MIC, time 10 min",501 and 500 and 473
same,Fluorescence intensity,"MRSA USA 300; 4 × MIC, time 0 min",533 and 527 and 530
same,Fluorescence intensity,"MRSA USA 300; 4 × MIC, time 2 min",524 and 523 and 522
same,Fluorescence intensity,"MRSA USA 300; 4 × MIC, time 3 min",601 and 580
same,Fluorescence intensity,"MRSA USA 300; 4 × MIC, time 4 min",492 and 500 and 513
same,Fluorescence intensity,"MRSA USA 300; 4 × MIC, time 5 min",512 and 496 and 490
same,Fluorescence intensity,"MRSA USA 300; 4 × MIC, time 6 min",493 and 486 and 463
same,Fluorescence intensity,"MRSA USA 300; 4 × MIC, time 7 min",496 and 476 and 456
same,Fluorescence intensity,"MRSA USA 300; 4 × MIC, time 8 min",480 and 476 and 436
same,Fluorescence intensity,"MRSA USA 300; 4 × MIC, time 9 min",484 and 487 and 446
same,Fluorescence intensity,"MRSA USA 300; 4 × MIC, time 10 min",483 and 441
same,Fluorescence intensity,"MRSA USA 300; 8 × MIC, time 0 min",535 and 554 and 539
same,Fluorescence intensity,"MRSA USA 300; 8 × MIC, time 2 min",538 and 545 and 530
same,Fluorescence intensity,"MRSA USA 300; 8 × MIC, time 3 min",1230 and 1256
same,Fluorescence intensity,"MRSA USA 300; 8 × MIC, time 4 min",1300 and 1355 and 1369
same,Fluorescence intensity,"MRSA USA 300; 8 × MIC, time 5 min",1673 and 1720 and 1652
same,Fluorescence intensity,"MRSA USA 300; 8 × MIC, time 6 min",1716 and 1691 and 1633
same,Fluorescence intensity,"MRSA USA 300; 8 × MIC, time 7 min",1735 and 1736 and 1641
same,Fluorescence intensity,"MRSA USA 300; 8 × MIC, time 8 min",1678 and 1731 and 1675
same,Fluorescence intensity,"MRSA USA 300; 8 × MIC, time 9 min",1728 and 1707 and 1732
same,Fluorescence intensity,"MRSA USA 300; 8 × MIC, time 10 min",1700 and 1684 and 1743
same,Fluorescence intensity,"MRSA USA 300; MIC, time 0 min",510 and 525 and 523
same,Fluorescence intensity,"MRSA USA 300; MIC, time 2 min",524 and 514 and 525
same,Fluorescence intensity,"MRSA USA 300; MIC, time 3 min",472 and 488 and 481
same,Fluorescence intensity,"MRSA USA 300; MIC, time 4 min",477 and 488 and 491
same,Fluorescence intensity,"MRSA USA 300; MIC, time 5 min",476 and 492 and 484
same,Fluorescence intensity,"MRSA USA 300; MIC, time 6 min",493 and 482 and 491
same,Fluorescence intensity,"MRSA USA 300; MIC, time 7 min",492 and 497 and 498
same,Fluorescence intensity,"MRSA USA 300; MIC, time 8 min",503 and 492 and 487
same,Fluorescence intensity,"MRSA USA 300; MIC, time 9 min",489 and 478
same,Fluorescence intensity,"MRSA USA 300; MIC, time 10 min",493 and 502 and 482
